Test results reported in PMC3079718.
These are yes or no findings as the source states them, for the method shown. For some assays here: Binding can be weak; no strength is given. Sequences can lack the tags named with a protein. For some assays here: In cells and extracts the contact can be indirect.

What was measured:
[1] = target: T1, MBP-AtGILPL (Arabidopsis thaliana) (UniProt Q94CD4); experiment: condition: 3 ug MBP fusion protein with 500 uL GST fusion protein supernatant; pull-down; 3 ug purified MBP fusion protein + 500 uL GST fusion protein supernatant + 30 uL amylose resin, 4 C for 4 h; binding buffer 20 mM Tris-HCl pH 7.4, 150 mM NaCl, 1 mM EDTA, 1% Triton X-100; washed with 500 mM NaCl, 1% Triton X-100; Western blot with anti-GST; only the target purified
T1 sequence: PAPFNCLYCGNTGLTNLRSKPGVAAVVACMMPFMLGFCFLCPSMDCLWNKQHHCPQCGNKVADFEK

[2] = target: T2, MBP-AtGILP (Arabidopsis thaliana) (UniProt Q94CD4); experiment: pull-down; 3 ug purified MBP fusion protein + 500 uL GST fusion protein supernatant + 30 uL amylose resin, 4 C for 4 h; binding buffer 20 mM Tris-HCl pH 7.4, 150 mM NaCl, 1 mM EDTA, 1% Triton X-100; washed with 500 mM NaCl, 1% Triton X-100; Western blot with anti-GST; only the target purified
T2 sequence: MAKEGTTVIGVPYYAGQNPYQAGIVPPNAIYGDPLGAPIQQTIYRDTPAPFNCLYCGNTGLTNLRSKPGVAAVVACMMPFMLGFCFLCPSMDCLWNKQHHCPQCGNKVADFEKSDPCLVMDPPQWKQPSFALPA

[3] = target: T3, MBP-AtGILPN (Arabidopsis thaliana) (UniProt Q94CD4); experiment: as above
T3 sequence: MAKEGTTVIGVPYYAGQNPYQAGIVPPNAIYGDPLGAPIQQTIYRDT

[4] = target: T4, MBP-AtGILPC (Arabidopsis thaliana) (UniProt Q94CD4); experiment: as above
T4 sequence: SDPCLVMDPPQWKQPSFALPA

[5] = target: T5, pGBK-AtGILP (AtGILP fused to the DNA binding domain of GAL4) (Arabidopsis thaliana) (UniProt Q94CD4); experiment: two-hybrid; bait in pGBKT7, prey in pGADT7-Rec, co-transformed into yeast strain AH109; quantitative beta-galactosidase activity of the colonies
T5 sequence: T2 sequence

| Substance | binding [1] | binding [2] | binding [3] | binding [4] | binding [5] |
| --- | --- | --- | --- | --- | --- |
| GST-AtLSD1 (Arabidopsis) | no binding | binds | binds | binds | – |
| pGAD-AtLSD1 (AtLSD1 in the prey vector pGADT7-Rec) (Arabidopsis) | – | – | – | – | binds |
